From US20120115830A1
These are yes or no findings as the source states them, for the method shown. Some entries that bind do so weakly or less than the wild type.

By UniProt entry, the sequences of proteins in these tests, tags left out.
UniProt Q9BYM8: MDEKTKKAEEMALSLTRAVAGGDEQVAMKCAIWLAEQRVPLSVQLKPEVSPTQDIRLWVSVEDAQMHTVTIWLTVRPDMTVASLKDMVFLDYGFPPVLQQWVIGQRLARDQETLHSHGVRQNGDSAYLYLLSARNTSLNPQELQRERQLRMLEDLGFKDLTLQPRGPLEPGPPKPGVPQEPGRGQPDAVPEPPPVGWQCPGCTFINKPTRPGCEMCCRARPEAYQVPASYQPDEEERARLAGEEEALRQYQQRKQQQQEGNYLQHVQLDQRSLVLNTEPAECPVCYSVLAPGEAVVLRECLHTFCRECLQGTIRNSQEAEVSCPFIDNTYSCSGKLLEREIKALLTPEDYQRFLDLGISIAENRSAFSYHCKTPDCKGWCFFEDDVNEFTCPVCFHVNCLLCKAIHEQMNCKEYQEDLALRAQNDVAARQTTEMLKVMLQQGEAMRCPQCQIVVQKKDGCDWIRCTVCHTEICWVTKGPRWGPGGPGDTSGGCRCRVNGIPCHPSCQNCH

How the values were obtained:
[1] = target: T1, USP19 cloned in-frame into pACT plasmid (UniProt O94966); experiment: mammalian two-hybrid in L132 cells
T1 sequence (looked up): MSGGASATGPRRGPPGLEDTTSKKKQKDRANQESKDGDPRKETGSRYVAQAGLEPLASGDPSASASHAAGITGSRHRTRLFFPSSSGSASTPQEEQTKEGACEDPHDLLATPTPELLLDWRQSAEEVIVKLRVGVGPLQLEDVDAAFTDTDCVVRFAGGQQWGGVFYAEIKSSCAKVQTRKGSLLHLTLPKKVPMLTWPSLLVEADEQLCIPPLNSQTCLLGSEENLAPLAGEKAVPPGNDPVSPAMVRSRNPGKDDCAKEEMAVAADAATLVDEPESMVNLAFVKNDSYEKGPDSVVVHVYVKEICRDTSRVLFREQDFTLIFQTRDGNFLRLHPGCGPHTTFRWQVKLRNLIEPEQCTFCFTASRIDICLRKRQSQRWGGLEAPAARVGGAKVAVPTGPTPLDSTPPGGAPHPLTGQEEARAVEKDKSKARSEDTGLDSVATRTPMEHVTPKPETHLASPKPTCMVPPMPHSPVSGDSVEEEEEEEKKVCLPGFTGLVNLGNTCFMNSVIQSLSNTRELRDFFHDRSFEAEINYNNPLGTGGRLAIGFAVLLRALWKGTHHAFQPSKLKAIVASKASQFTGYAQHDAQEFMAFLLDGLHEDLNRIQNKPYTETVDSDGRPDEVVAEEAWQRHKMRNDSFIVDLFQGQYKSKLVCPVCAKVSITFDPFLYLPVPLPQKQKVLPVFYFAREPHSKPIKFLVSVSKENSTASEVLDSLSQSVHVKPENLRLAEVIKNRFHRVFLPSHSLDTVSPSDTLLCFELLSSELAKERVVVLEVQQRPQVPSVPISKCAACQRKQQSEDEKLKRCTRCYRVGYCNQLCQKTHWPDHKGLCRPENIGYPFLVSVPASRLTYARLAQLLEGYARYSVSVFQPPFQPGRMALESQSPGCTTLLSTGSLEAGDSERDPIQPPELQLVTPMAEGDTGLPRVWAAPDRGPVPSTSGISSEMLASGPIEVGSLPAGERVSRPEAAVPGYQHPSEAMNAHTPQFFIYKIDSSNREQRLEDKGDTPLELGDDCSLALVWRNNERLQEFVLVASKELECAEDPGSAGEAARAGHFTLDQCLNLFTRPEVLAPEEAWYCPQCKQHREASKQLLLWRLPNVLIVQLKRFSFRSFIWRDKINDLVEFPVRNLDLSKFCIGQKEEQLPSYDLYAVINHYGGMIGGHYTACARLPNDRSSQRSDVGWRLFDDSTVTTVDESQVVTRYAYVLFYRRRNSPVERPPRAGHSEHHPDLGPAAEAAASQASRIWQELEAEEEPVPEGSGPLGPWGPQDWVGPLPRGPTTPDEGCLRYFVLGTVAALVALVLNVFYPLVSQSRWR

[2] = target: XAP3 cloned in-frame into pACT plasmid (UniProt Q9BYM8); experiment: mammalian two-hybrid in L132 cells
[3] = target: T1, USP19 cloned in-frame into pACT plasmid; experiment: mammalian two-hybrid (FIG. 2c-d)
[4] = target: XAP3 cloned in-frame into pACT plasmid (UniProt Q9BYM8); experiment: mammalian two-hybrid (FIG. 2c-d)

Measured: binding

B1: Full length FKBPL cloned in-frame into pBIND plasmid (protein, not shown: large carriers)
chain: METPPVNTIGEKDTSQPQQEWEKNLRENLDSVIQIRQQPRDPPTETLELEVSPDPASQILEHTQGAEKLVAELEGDSHKSHGSTSQMPEALQASDLWYCPDGSFVKKIVIRGHGLDKPKLGSCCRVLALGFPFGSGPPEGWTELTMGVGPWREETWGELIEKCLESMCQGEEAELQLPGHSGPPVRLTLASFTQGRDSWELETSEKEALAREERARGTELFRAGNPEGAARCYGRALRLLLTLPPPGPPERTVLHANLAACQLLLGQPQLAAQSCDRVLEREPGHLKALYRRGVAQAALGNLEKATADLKKVLAIDPKNRAAQEELGKVVIQGKNQDAGLAQGLRKMFG
binds: [1] | [2] | [3] | [4]
